Values from PubChem BioAssay AID1259308 (NCATS, 2017).

- Screen: 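Knock-downs that increase output of a recombinant reporter protein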 (primary screen)
- Cells: human HEK293 embryonic kidney cells stably expressing firefly luciferase (HEK-CMV-Luc2-Hygro)
- Knock-down reagent: single siRNA against human genes, 0.8 pmol siRNA per well
- Duration: 72 h
- Detection: 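Reporter luminescence and viable-cell signal on separate replicate plates, given as percent of non-targeting control and median/MAD z-scores, plus per-cell luciferase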
- Direction: total luciferase, z-score and total luciferase, % of control: higher = more reporter protein produced
- Hit rule: 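An siRNA counts as active if its total luciferase robust z-score exceeds 3; genes with two or more such siRNAs out of three were retested with fresh siRNAs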
- Calls: active = raised luciferase; inactive = no rise
In all, the deposit lists about 59,000 reagents; this is a random part of them. In the full data, about 1,510 (2.6%) got an active call. 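Calls use total luciferase alone and ignore viability, so some active siRNAs may act by altering cell number.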 Reagents against one gene are numbered here. Further read-outs or replicates are left out here.

For ACSM1 #1, the values are total luciferase, z-score -0.316; total luciferase, % of control 75.6; inactive.
For ACSM1 #2 the deposit lists total luciferase, z-score 0.0498; total luciferase, % of control 82.9; inactive.
With knock-down of ACSM1 #3, the record shows total luciferase, z-score 0.198; total luciferase, % of control 85.8; inactive.
For REG4 #1 the deposit lists total luciferase, z-score 0.221; total luciferase, % of control 86.3; inactive.
Silencing of REG4 #2 resulted in: total luciferase, z-score 0.0192; total luciferase, % of control 82.3; inactive.
After knock-down of REG4 #3, the screen gave total luciferase, z-score 0.381; total luciferase, % of control 89.5; inactive.
For RPS2P45 #1 the deposit lists total luciferase, z-score 0.182; total luciferase, % of control 85.5; inactive.
RPS2P45 #2 showed total luciferase, z-score 0.174; total luciferase, % of control 85.3; inactive.
Silencing of RPS2P45 #3 resulted in: total luciferase, z-score 0.294; total luciferase, % of control 87.7; inactive.
With knock-down of PAEP #1, the record shows total luciferase, z-score 0.33; total luciferase, % of control 88.5; inactive.
Against PAEP #2, the entry reads total luciferase, z-score 1.14; total luciferase, % of control 104; inactive.
PAEP #3 gave total luciferase, z-score 0.148; total luciferase, % of control 84.8; inactive.

2 neighbouring entries from above, for reference:
PAEP #2 | total luciferase, z-score = 1.14; total luciferase, % of control = 104; outcome = inactive
PAEP #3 | total luciferase, z-score = 0.148; total luciferase, % of control = 84.8; outcome = inactive

The listing continues:
Depletion of NQO1 #1 resulted in: total luciferase, z-score 0.226; total luciferase, % of control 86.4; inactive.
For NQO1 #2, the values are total luciferase, z-score 0.301; total luciferase, % of control 87.9; inactive.
NQO1 #3 gave total luciferase, z-score -0.348; total luciferase, % of control 75; inactive.
BTBD17 #1 gave total luciferase, z-score 0.958; total luciferase, % of control 101; inactive.
Silencing of BTBD17 #2 resulted in: total luciferase, z-score -0.477; total luciferase, % of control 72.4; inactive.
With knock-down of BTBD17 #3, the screen gave total luciferase, z-score 0.186; total luciferase, % of control 85.6; inactive.
After knock-down of FCGR2B #1, the record shows total luciferase, z-score 1.09; total luciferase, % of control 104; inactive.
For FCGR2B #2 the deposit lists total luciferase, z-score 1.05; total luciferase, % of control 103; inactive.
FCGR2B #3 scored total luciferase, z-score -1.54; total luciferase, % of control 51.3; inactive.
